US20170189504A1, “NOVEL PEPTIDES AND COMBINATION OF PEPTIDES FOR USE IN IMMUNOTHERAPY AGAINST VARIOUS CANCERS” (immatics biotechnologies GmbH, priority 2015, published 2017)

Key:
HLA-A*02 = assay: Identification and relative LC-MS quantitation of HLA-A*02-presented tumor-associated peptides on tissue samples (presentation profiles, Tables 13A, 13B, 15, FIG. 1); design: species or system human; key to Presentation score NHL / Presentation score CLL / Presentation score BRCA / Presentation score AML / Presentation score GB / Presentation score NSCLC / Presentation score GBC_CCC / Presentation score UEC / Presentation score MEL / Presentation score OSCAR / Presentation score GC / Presentation score UBC / Presentation score OC / Presentation score RCC / Presentation score CRC / Presentation score PCA / Presentation score HCC / Presentation score PC / Presentation score SCLC: specifically presented on tumors (++++); very highly over-presented on tumors compared to a panel of normal tissues (+++); highly over-presented on tumors compared to a panel of normal tissues (++); over-presented on tumors compared to a panel of normal tissues (+); conditions: for Presentation score MEL: melanoma (N = 7) vs panel of normal tissues (N = 262); for Presentation score NHL: non-Hodgkin lymphoma (N = 18) vs panel of normal tissues (N = 262); for Presentation score NSCLC: non-small cell lung cancer (N = 90) vs panel of normal tissues (N = 262); for Peptide Presentation on cancer entities: HLA-A*02-binding tumor-associated peptides; for Presentation score OSCAR: esophageal cancer, including cancer of the gastric-esophageal junction (N = 17) vs panel of normal tissues (N = 262); for Presentation score OC: ovarian cancer (N = 20) vs panel of normal tissues (N = 262)
source genes (mRNA) [1] = assay: Gene and exon expression of source genes, TCGA tumor samples compared with normal tissue samples (Lonsdale, 2013) (Table 17); design: species or system human; conditions: for Target coverage: over-expression category of source gene, LAML: Acute Myeloid Leukemia (N = 173); for Target coverage: over-expression category of source gene, BRCA: Breast cancer (N = 1104), cutoff more than 2-fold above highest 75% percentile of high and medium risk normal tissue samples; for Target coverage: over-expression category of source gene, ESCA: Esophageal cancer (N = 185); for Target coverage: over-expression category of source gene, GBM: Glioblastoma multiforme (N = 169); for Target coverage: over-expression category of source gene, LGG: Lower grade glioma (N = 534); for Target coverage: over-expression category of source gene, DLBC: Lymphoid neoplasm diffuse large B-cell lymphoma (N = 48); for Target coverage: over-expression category of source gene, OV: Ovarian serous cystadenocarcinoma (N = 309); for Target coverage: over-expression category of source gene, SKCM: Skin cutaneous melanoma (N = 473); for Target coverage: over-expression category of source gene, STAD: Stomach adenocarcinoma (N = 415)
source genes (mRNA) [2] = assay: Expression profiling of source genes by in-house RNASeq of tumor and normal tissues (Table 18, FIG. 2); design: species or system human; key: very highly over-expressed in tumors compared to a panel of normal tissues (+++); highly over-expressed in tumors compared to a panel of normal tissues (++); over-expressed in tumors compared to a panel of normal tissues (+); conditions: source gene of peptide; for Expression score NHL: non-Hodgkin lymphoma (N = 10) vs panel of normal tissues
[3] = Table 13A, cancer entities on which the peptide was found presented
[4] = Table 13B, presentation on additional cancer entities
[5] = cutoff more than 2-fold above highest 75% percentile of normal tissue samples

Substance | Presentation score MEL (HLA-A*02; HLA-A*02 peptides) | Presentation score NHL (HLA-A*02; HLA-A*02 peptides) | Presentation score NSCLC (HLA-A*02; HLA-A*02 peptides) | Peptide Presentation on cancer entities (HLA-A*02; [3]) | Peptide Presentation on cancer entities (HLA-A*02; [4]) | Target coverage: over-expression category of source gene, LAML (source genes (mRNA) [1]; [5]) | Target coverage: over-expression category of source gene, BRCA (source genes (mRNA) [1]) | Target coverage: over-expression category of source gene, ESCA (source genes (mRNA) [1]; [5]) | Target coverage: over-expression category of source gene, GBM (source genes (mRNA) [1]; [5]) | Target coverage: over-expression category of source gene, LGG (source genes (mRNA) [1]; [5]) | Target coverage: over-expression category of source gene, DLBC (source genes (mRNA) [1]; [5]) | Target coverage: over-expression category of source gene, OV (source genes (mRNA) [1]; [5]) | Target coverage: over-expression category of source gene, SKCM (source genes (mRNA) [1]; [5]) | Target coverage: over-expression category of source gene, STAD (source genes (mRNA) [1]; [5]) | Expression score NHL (source genes (mRNA) [2]) | Presentation score OSCAR (HLA-A*02; HLA-A*02 peptides) | Presentation score OC (HLA-A*02; HLA-A*02 peptides) | other results
16: peptide found in ATAD2 (gene looked up) (YTLDIPVLFGV; listed as Homo sapiens) [compound 16] | ++++ | ++++ | ++++ | NSCLC, HCC, CLL, MEL, NHL | HNSCC | A (>=50% of tumors above the cutoff) | A (>=50% of tumors above the cutoff) | A (>=50% of tumors above the cutoff) | C (>=5% of tumors above the cutoff, but <20%) | C (>=5% of tumors above the cutoff, but <20%) | B (>= 20% of tumors above the cutoff, but <50%) | A (>=50% of tumors above the cutoff) | B (>= 20% of tumors above the cutoff, but <50%) | A (>=50% of tumors above the cutoff) | + |  |  | Presentation score CLL (HLA-A*02; HLA-A*02 peptides, chronic lymphocytic leukemia (N = 17) vs panel of normal tissues (N = 262)): ++++; Presentation score HCC (HLA-A*02; HLA-A*02 peptides, hepatocellular carcinoma (N = 16) vs panel of normal tissues (N = 262)): ++++; Target coverage: over-expression category of source gene, BLCA (source genes (mRNA) [1]; Bladder urothelial carcinoma (N = 408), cutoff more than 2-fold above highest 75% percentile of normal tissue samples): B (>= 20% of tumors above the cutoff, but <50%); Target coverage: over-expression category of source gene, CHOL (source genes (mRNA) [1]; Cholangiocarcinoma (N = 36), cutoff more than 2-fold above highest 75% percentile of normal tissue samples): C (>=5% of tumors above the cutoff, but <20%); Target coverage: over-expression category of source gene, READ (source genes (mRNA) [1]; Colon and rectal adenocarcinoma (N = 167), cutoff more than 2-fold above highest 75% percentile of normal tissue samples): B (>= 20% of tumors above the cutoff, but <50%); Target coverage: over-expression category of source gene, COAD (source genes (mRNA) [1]; Colon and rectal adenocarcinoma (N = 462), cutoff more than 2-fold above highest 75% percentile of normal tissue samples): B (>= 20% of tumors above the cutoff, but <50%); Target coverage: over-expression category of source gene, LIHC (source genes (mRNA) [1]; Liver hepatocellular carcinoma (N = 374), cutoff more than 2-fold above highest 75% percentile of normal tissue samples): C (>=5% of tumors above the cutoff, but <20%); Target coverage: over-expression category of source gene, LUAD (source genes (mRNA) [1]; Lung adenocarcinoma (N = 517), cutoff more than 2-fold above highest 75% percentile of normal tissue samples): B (>= 20% of tumors above the cutoff, but <50%); Target coverage: over-expression category of source gene, LUSC (source genes (mRNA) [1]; Lung squamous cell carcinoma (N = 503), cutoff more than 2-fold above highest 75% percentile of normal tissue samples): A (>=50% of tumors above the cutoff); Target coverage: over-expression category of source gene, PRAD (source genes (mRNA) [1]; Prostate adenocarcinoma (N = 498), cutoff more than 2-fold above highest 75% percentile of normal tissue samples): C (>=5% of tumors above the cutoff, but <20%); Target coverage: over-expression category of source gene, UCEC (source genes (mRNA) [1]; Uterine corpus endometrial carcinoma (N = 546), cutoff more than 2-fold above highest 75% percentile of normal tissue samples): C (>=5% of tumors above the cutoff, but <20%); Expression score BRCA (source genes (mRNA) [2]; BRCA tumors vs panel of normal tissues): +; Expression score CRC (source genes (mRNA) [2]; colorectal cancer (N = 20) vs panel of normal tissues): +; Expression score OSCAR (source genes (mRNA) [2]; esophageal cancer incl. gastric-esophageal junction (N = 11) vs panel of normal tissues): +; Expression score GBC_CCC (source genes (mRNA) [2]; gallbladder adenocarcinoma and cholangiocarcinoma (N = 3) vs panel of normal tissues): +; Expression score NSCLC (source genes (mRNA) [2]; non-small cell lung cancer (N = 11) vs panel of normal tissues): +; Expression score OC (source genes (mRNA) [2]; ovarian cancer (N = 12) vs panel of normal tissues): ++; Expression score SCLC (source genes (mRNA) [2]; small cell lung cancer (N = 10) vs panel of normal tissues): +++
17: peptide found in KMT2A (gene looked up) (AVFPDDMPTL; listed as Homo sapiens) [compound 17] |  | ++++ | ++++ | GC, NSCLC, OSCAR, OC, NHL |  | A (>=50% of tumors above the cutoff) |  |  |  |  |  |  |  |  |  | ++++ | ++++ | Presentation score GC (HLA-A*02; HLA-A*02 peptides, gastric cancer (N = 29) vs panel of normal tissues (N = 262)): ++++; Expression score CLL (source genes (mRNA) [2]; chronic lymphocytic leukemia (N = 10) vs panel of normal tissues): +
19: peptide found in BMP2K (gene looked up) (SISDNVWEV; listed as Homo sapiens) [compound 19] | ++++ | ++++ |  | GB, OSCAR, OC, UEC, BRCA, MEL, NHL | HNSCC | A (>=50% of tumors above the cutoff) | C (>=5% of tumors above the cutoff, but <20%) | B (>= 20% of tumors above the cutoff, but <50%) | C (>=5% of tumors above the cutoff, but <20%) | C (>=5% of tumors above the cutoff, but <20%) | B (>= 20% of tumors above the cutoff, but <50%) | C (>=5% of tumors above the cutoff, but <20%) | C (>=5% of tumors above the cutoff, but <20%) | B (>= 20% of tumors above the cutoff, but <50%) | + | ++++ | ++++ | Presentation score BRCA (HLA-A*02; HLA-A*02 peptides, breast cancer (N = 17) vs panel of normal tissues (N = 262)): ++++; Presentation score GB (HLA-A*02; HLA-A*02 peptides, glioblastoma (N = 41) vs panel of normal tissues (N = 262)): ++++; Presentation score UEC (HLA-A*02; HLA-A*02 peptides, uterine cancer (N = 15) vs panel of normal tissues (N = 262)): ++++; Target coverage: over-expression category of source gene, KIRC (source genes (mRNA) [1]; Clear cell kidney carcinoma (N = 534), cutoff more than 2-fold above highest 75% percentile of normal tissue samples): B (>= 20% of tumors above the cutoff, but <50%); Target coverage: over-expression category of source gene, KICH (source genes (mRNA) [1]; Kidney chromophobe (N = 66), cutoff more than 2-fold above highest 75% percentile of normal tissue samples): C (>=5% of tumors above the cutoff, but <20%); Target coverage: over-expression category of source gene, KIRP (source genes (mRNA) [1]; Papillary kidney carcinoma (N = 291), cutoff more than 2-fold above highest 75% percentile of normal tissue samples): C (>=5% of tumors above the cutoff, but <20%); Expression score GB (source genes (mRNA) [2]; glioblastoma (N = 24) vs panel of normal tissues): +

For some of these results: Expression values are those of the mRNA of the gene that encodes the peptide; a gene is named only where it was looked up.
